Results on one substance are retold here after publication PMC10516749.

These are yes or no findings as the source states them, for the method shown. Binding seen in cells or lysates may run through a third protein. Where a sequence is shown, tags or fusion partners need not be part of it.

The assay concerns the target T1, FBXO28-Flag-Myc (pCMV6-FBXO28-Myc-Flag) (UniProt Q9NVF7).
T1 sequence: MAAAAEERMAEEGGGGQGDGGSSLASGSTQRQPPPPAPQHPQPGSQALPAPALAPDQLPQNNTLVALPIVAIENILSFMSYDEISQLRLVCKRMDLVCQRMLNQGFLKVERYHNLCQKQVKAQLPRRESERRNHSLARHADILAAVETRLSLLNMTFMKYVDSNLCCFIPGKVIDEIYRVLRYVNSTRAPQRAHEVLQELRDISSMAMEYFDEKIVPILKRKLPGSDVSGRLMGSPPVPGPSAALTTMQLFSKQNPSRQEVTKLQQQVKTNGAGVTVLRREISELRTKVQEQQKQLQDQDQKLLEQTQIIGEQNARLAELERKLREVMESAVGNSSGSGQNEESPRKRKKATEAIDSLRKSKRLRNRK
Briefly: co-IP; HEK293T cells transfected with FBXO28 and SNAI2 plasmids (wild type or mutants) for 48 h, MG132 20 uM 6 h before harvest, Triton X-100 buffer, IP and IB.

As for “SNAI2 ΔZnF (deletion mutant lacking the Zinc finger domain) (domain or fragment)”, the binding result is reported as “no binding”.
